Values of other authors in patent US12146871B2, “Method and device for physicochemical characterization of materials” (THE SOLUBILITY COMPANY OY, priority 2016, dated 2024).

Settings: qualitative descriptor, commonly presented; cited from earlier work

## COc1ccc2c(c1)c(CC(=O)O)c(C)n2C(=O)c1ccc(Cl)cc1 [indomethacin]
  water solubility: practically insoluble
